From PMC5823669, “Multi-chaperone function modulation and association with cytoskeletal proteins are key features of the function of AIP in the pituitary gland” (Oncotarget, 2018) come the findings set out here.

By UniProt entry, the sequences of proteins in these tests, tags left out. Residues count along the entry.
UniProt P15999, residues 44-553: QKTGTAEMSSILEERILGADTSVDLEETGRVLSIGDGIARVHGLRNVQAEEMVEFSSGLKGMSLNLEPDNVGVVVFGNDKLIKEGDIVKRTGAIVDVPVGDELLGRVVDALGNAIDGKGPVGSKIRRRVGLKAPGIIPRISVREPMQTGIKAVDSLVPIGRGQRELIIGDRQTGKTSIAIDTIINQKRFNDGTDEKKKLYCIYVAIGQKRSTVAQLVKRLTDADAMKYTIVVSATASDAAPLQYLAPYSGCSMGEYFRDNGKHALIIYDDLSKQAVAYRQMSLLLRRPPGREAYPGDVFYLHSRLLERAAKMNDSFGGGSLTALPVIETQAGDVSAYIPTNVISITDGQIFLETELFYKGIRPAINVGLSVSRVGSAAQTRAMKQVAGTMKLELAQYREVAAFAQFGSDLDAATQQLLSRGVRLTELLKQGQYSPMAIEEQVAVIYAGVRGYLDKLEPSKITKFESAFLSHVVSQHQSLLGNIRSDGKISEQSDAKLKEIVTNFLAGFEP
UniProt P63018: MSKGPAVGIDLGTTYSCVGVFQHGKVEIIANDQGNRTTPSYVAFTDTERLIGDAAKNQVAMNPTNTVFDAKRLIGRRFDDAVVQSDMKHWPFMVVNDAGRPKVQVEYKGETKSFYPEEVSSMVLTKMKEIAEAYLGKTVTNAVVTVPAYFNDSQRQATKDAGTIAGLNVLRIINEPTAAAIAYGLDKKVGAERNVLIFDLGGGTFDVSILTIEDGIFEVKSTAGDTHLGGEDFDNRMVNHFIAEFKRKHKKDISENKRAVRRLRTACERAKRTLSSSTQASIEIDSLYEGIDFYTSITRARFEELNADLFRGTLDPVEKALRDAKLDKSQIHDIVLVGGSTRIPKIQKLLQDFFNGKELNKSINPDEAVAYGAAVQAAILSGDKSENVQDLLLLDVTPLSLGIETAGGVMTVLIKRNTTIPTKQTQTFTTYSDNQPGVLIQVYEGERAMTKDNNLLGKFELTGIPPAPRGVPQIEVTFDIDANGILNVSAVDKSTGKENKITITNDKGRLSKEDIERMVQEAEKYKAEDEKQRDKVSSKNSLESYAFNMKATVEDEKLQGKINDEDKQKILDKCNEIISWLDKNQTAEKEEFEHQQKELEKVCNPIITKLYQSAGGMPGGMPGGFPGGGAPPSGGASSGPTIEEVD
UniProt Q9QX69: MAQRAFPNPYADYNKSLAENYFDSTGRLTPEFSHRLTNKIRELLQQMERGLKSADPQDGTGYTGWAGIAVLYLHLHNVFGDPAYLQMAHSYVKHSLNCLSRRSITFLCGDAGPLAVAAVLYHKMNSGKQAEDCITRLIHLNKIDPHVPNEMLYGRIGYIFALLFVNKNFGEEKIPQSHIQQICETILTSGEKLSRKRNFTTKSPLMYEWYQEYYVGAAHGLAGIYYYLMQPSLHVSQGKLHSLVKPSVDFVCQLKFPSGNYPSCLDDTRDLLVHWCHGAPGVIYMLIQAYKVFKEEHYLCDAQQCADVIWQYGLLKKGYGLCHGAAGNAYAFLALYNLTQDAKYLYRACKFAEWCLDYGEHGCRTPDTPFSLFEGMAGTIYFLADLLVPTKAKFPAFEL
UniProt Q6PEC4: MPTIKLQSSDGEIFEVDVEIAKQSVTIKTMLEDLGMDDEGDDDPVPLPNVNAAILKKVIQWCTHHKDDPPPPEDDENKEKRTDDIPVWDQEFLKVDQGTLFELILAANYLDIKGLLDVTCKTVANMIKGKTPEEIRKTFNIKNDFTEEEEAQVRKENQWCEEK
UniProt Q6P9T8: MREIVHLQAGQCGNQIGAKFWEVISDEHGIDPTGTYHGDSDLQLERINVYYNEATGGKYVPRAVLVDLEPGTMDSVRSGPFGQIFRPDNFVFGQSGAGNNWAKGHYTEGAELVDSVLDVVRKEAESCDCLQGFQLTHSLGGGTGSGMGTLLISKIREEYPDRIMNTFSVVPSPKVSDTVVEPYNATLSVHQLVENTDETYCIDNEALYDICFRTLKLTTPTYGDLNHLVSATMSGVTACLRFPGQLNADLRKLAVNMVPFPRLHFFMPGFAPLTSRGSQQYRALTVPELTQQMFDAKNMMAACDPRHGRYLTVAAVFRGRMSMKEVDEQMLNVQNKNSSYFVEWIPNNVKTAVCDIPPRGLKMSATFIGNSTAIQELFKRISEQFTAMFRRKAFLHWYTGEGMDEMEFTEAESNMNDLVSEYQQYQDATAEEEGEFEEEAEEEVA

Results are given in words; binding and its absence hold for the method and conditions named. In cells and extracts the contact can be indirect. A yes stands for co-enrichment or nearness to the bait. Other partners may have been found. A no says only that the protein was not detected with the bait. Where a sequence is shown, tags or fusion partners need not be part of it.

T1: GST-tagged human wild-type AIP (aryl hydrocarbon receptor interacting protein) (human) (UniProt O00170)
T1 sequence: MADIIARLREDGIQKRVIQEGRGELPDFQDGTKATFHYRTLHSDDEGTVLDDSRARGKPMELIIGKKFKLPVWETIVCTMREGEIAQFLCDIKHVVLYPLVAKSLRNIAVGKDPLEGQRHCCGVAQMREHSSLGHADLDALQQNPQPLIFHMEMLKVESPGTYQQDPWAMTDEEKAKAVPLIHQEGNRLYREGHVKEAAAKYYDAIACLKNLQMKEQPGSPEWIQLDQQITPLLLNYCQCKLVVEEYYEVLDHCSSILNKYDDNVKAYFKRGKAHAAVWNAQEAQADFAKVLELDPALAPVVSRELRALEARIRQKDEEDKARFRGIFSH

B1: KTU_RAT Protein kintoun (Dnaaf2) (protein, UniProt Q5FVL7 1-817)
chain: MAKTAASSALEDLDLSGEEVQRLTSAFQDPEFRRMFSDYAAEITDPENRRRYEEEITALERERGVEVRFVHPEPGHVLRTSLDGEHRCFVNVCSNSLVGAPSSRPGPGRGGTAAGSHWSLPYSLAPGRQYAGRNGNRYTVYDVVFHPEALALARSHERFREMLDATALEAVEQQFGVRLDRRNAKTLKIKYKGTPEAAVLRTPLPEGVRAQPEGELPGLLPYPPYPYHYPAAAESTARSPASPAPKAVQRPEPTEPRCSVVQRHHVDLQDYRCSRDAAPSTVPHELVVTIELPLLRSAERAELEVKGKLLCLDSRNPDYRLRLSLPYPVDDGRGRAQYNKARRQLVVTLPVALAVARQDFSTTPEGPTAETGTDNIACTSAGDLAGAREESADSSGADHGRKSCVVAPDAGTAKAEGELVPEPEQDFGGDSVTPLGPGEGTTPENRSLLYSAFQSGDAESLAERSGVYGDLSVQTSEEQEGTCHDTSGSDMGGPGTESIKPLCPPLQCNQDEDSLTLLIQVPGIQPQSLHGDLSPFSYELCFSTQDSGYSFTLQFAPENKLSTKEPAISISLNNAVIVLAKSPESHGLWREWYWGLNKDSLEERLFIDEENVNEFLEEVVRSPLKPARSLSPPLIEVLQVTEEQIQIHAKLQECSDPDGLQGKEKGVKEECPLSEKENTEHSTTSTADSNSSVAVEGLKINTCGAVGLQQGCPDVPHVLSGKRLQSEAKMDPEFIRESSTAYSAEEKENIKEPVITKEKKIGGDHLSSLPNKTAVQNTHDFDTIKETNMQDGSVQIIKDHTTHCAFDFQNSLLYDLD
B2: FUBP2_RAT Far upstream element-binding protein 2 (Khsrp) (protein, UniProt Q99PF5 1-721)
chain: MSDYSTGGPPPGPPPPAGGGGGAAGAGGGPPPGPPGAGDRGGGGPGGGGPGGGGASGGPSQPPGGGGPGIRKDAFADAVQRARQIAAKIGGDAATTVNNNTPDFGFGGQKRQLEDGDQPDSKKLASQGDSIGSQLGPIHPPPRTSMTEEYRVPDGMVGLIIGRGGEQINKIQQDSGCKVQISPDSGGLPERSVSLTGAPESVQKAKMMLDDIVSRGRGGPPGQFHDNANGGQNGTVQEIMIPAGKAGLVIGKGGETIKQLQERAGVKMILIQDGSQNTNVDKPLRIIGDPYKVQQACEMVMDILRERDQGGFGDRNEYGSRVGGGIDVPVPRHSVGVVIGRSGEMIKKIQNDAGVRIQFKQDDGTGPEKIAHIMGPPDRCEHAARIINDLLQSLRSGPPGPPGAPGMPPGGRGRGRGQGNWGPPGGEMTFSIPTHKCGLVIGRGGENVKAINQQTGAFVEISRQLPPNGDPNFKLFVIRGSPQQIDHAKQLIEEKIEGPLCPVGPGPGGPGPAGPMGPFHPGPFNQGPPGAPPHAGGPPPHQYPPQGWGNTYPEWQPPAPHDPNKAAAAATDPNAAWAAYYSHYYQQPPGPVPGPAPAPAAPPAQGEPPQPPPTGQSDYTKAWEEYYKKIGQQPQQPGAPPQQDYTKAWEEYYKKQAQVATGGGPGAPPGSQPDYSAAWAEYYRQQAAYYGQTPGPGGPQPPSTQQGQQQATEANGYELHL
B3: CRIP1_RAT Cysteine-rich protein 1 (Crip1) (protein, UniProt P63255 1-77)
chain: MPKCPKCDKEVYFAERVTSLGKDWHRPCLKCEKCGKTLTSGGHAEHEGKPYCNHPCYSAMFGPKGFGRGGAESHTFK
B4: TBB5_RAT Tubulin beta-5 chain (Tubb5) (natural protein, R. norvegicus (endogenous in GH3), UniProt P69897 1-444, looked up)
chain: MREIVHIQAGQCGNQIGAKFWEVISDEHGIDPTGTYHGDSDLQLDRISVYYNEATGGKYVPRAILVDLEPGTMDSVRSGPFGQIFRPDNFVFGQSGAGNNWAKGHYTEGAELVDSVLDVVRKEAESCDCLQGFQLTHSLGGGTGSGMGTLLISKIREEYPDRIMNTFSVVPSPKVSDTVVEPYNATLSVHQLVENTDETYCIDNEALYDICFRTLKLTTPTYGDLNHLVSATMSGVTTCLRFPGQLNADLRKLAVNMVPFPRLHFFMPGFAPLTSRGSQQYRALTVPELTQQVFDAKNMMAACDPRHGRYLTVAAVFRGRMSMKEVDEQMLNVQNKNSSYFVEWIPNNVKTAVCDIPPRGLKMAVTFIGNSTAIQELFKRISEQFTAMFRRKAFLHWYTGEGMDEMEFTEAESNMNDLVSEYQQYQDATAEEEEDFGEEAEEEA
notes: Tubulin beta-5 chain, rat, UniProt P69897; also called tubulin beta chain; source: endogenous, GH3 cell lysate
B5: CBR1_RAT Carbonyl reductase [NADPH] 1 (Cbr1) (protein, UniProt P47727 1-277)
chain: MSSDRPVALVTGANKGIGFAIVRDLCRKFLGDVVLTARDESRGHEAVKQLQTEGLSPRFHQLDIDNPQSIRALRDFLLQEYGGLNVLVNNAGIAFKVVDPTPFHIQAEVTMKTNFFGTQDVCKELLPIIKPQGRVVNVSSSVSLRALKSCSPELQQKFRSETITEEELVGLMNKFIEDAKKGVHAKEGWPNSAYGVTKIGVTVLSRIYARKLNEERREDKILLNACCPGWVRTDMAGPKATKSPEEGAETPVYLALLPPGAEGPHGQFVQDKKVEPW
B6: ATP5I_RAT ATP synthase subunit e, mitochondrial (Atp5i) (protein, UniProt P29419 1-71)
chain: MVPPVQVSPLIKFGRYSALILGMAYGAKRYSYLKPRAEEERRIAAEEKKRLDELKRIERELAEAEDVSIFK
B7: TBB2A_RAT Tubulin beta-2A chain (Tubb2a) (natural protein, R. norvegicus (endogenous in GH3), UniProt P85108 1-445, looked up)
chain: MREIVHIQAGQCGNQIGAKFWEVISDEHGIDPTGSYHGDSDLQLERINVYYNEAAGNKYVPRAILVDLEPGTMDSVRSGPFGQIFRPDNFVFGQSGAGNNWAKGHYTEGAELVDSVLDVVRKESESCDCLQGFQLTHSLGGGTGSGMGTLLISKIREEYPDRIMNTFSVMPSPKVSDTVVEPYNATLSVHQLVENTDETYSIDNEALYDICFRTLKLTTPTYGDLNHLVSATMSGVTTCLRFPGQLNADLRKLAVNMVPFPRLHFFMPGFAPLTSRGSQQYRALTVPELTQQMFDSKNMMAACDPRHGRYLTVAAIFRGRMSMKEVDEQMLNVQNKNSSYFVEWIPNNVKTAVCDIPPRGLKMSATFIGNSTAIQELFKRISEQFTAMFRRKAFLHWYTGEGMDEMEFTEAESNMNDLVSEYQQYQDATADEQGEFEEEEGEDEA
notes: Tubulin beta-2A chain, rat, UniProt P85108; source: endogenous, GH3 cell lysate
B8: VAPA_RAT Vesicle-associated membrane protein-associated protein A (Vapa) (protein, UniProt Q9Z270 1-249)
chain: MASASGAMAKHEQILVLDPPSDLKFKGPFTDVVTTNLKLQNPSDRKVCFKVKTTAPRRYCVRPNSGVIDPGSIVTVSVMLQPFDYDPNEKSKHKFMVQTIFAPPNISDMEAVWKEAKPDELMDSKLRCVFEMPNENDKLNDMEPSKAVPLNASKQDGPLPKPHSVSLNDTETRKLMEECKRLQGEMMKLSEENRHLRDEGLRLRKVAHSDKPGSTSAVSFRDNVTSPLPSLLVVIAAIFIGFFLGKFIL
B9: FBX3_RAT F-box only protein 3 (Fbxo3) (protein, UniProt D4ABP9 1-480)
chain: MAAVEAETGLLTLESLPTDPLLLILSFVDYRDLINCCYVSRRLSQLSTHDPLWRRHCKKYWLITEEEKARKNQCWKSLFIATYSDVGRYINHYAAIKKAWDDLKKYLEPRCPRMVLSLKEGAREEDLDAVEAQIGCKLPDDYRCSYRIHNGQKLVVPGLLGSMALSNHYRSEDLLDVDTAAGGFQQRQGLKYCLPLTFCIHTGLSQYIAVEAAEGRNKNEVFYQCPDQMARNPAAIDMFIIGATFTDWFTSYVNNVVSGGFPIIRDQIFRYIHDPECVATTGDITVSVSTSFLPELSSVHPPHYFFTYRIRIEMSRDALPEKACQLDSRYWRITNAKGDVEEVQGPGVVGEFPIISPGRIYEYTSCTTFSTTSGYMEGYYTFHFLYFKDKVFNVAIPRFHMACPTFRVSIARLEMGPDEYEEMEEEAEEEEEEENDDSADMDESDESDEDENESDEGEGEERRRRVFDVPIRRRRCSRLF
B10: ATPD_RAT ATP synthase subunit delta, mitochondrial (Atp5d) (protein, UniProt P35434 23-168)
chain: AQAAASPAPAAGPGQMSFTFASPTQVFFDGANVRQVDVPTLTGAFGILASHVPTLQVLRPGLVMVHAEDGTTTKYFVSSGSVTVNADSSVQLLAEEVVTLDMLDLGAARANLEKAQSELSGAADEAARAEIQIRIEANEALVKALE
B11: NFL_RAT Neurofilament light polypeptide (Nefl) (protein, UniProt P19527 1-542)
chain: MSSFSYEPYFSTSYKRRYVETPRVHISSVRSGYSTARSAYSSYSAPVSSSLSVRRSYSSSSGSLMPSLENLDLSQVAAISNDLKSIRTQEKAQLQDLNDRFASFIERVHELEQQNKVLEAELLVLRQKHSEPSRFRALYEQEIRDLRLAAEDATNEKQALQGEREGLEETLRNLQARYEEEVLSREDAEGRLMEARKGADEAALARAELEKRIDSLMDEIAFLKKVHEEEIAELQAQIQYAQISVEMDVSSKPDLSAALKDIRAQYEKLAAKNMQNAEEWFKSRFTVLTESAAKNTDAVRAAKDEVSESRRLLKAKTLEIEACRGMNEALEKQLQELEDKQNADISAMQDTINKLENELRSTKSEMARYLKEYQDLLNVKMALDIEIAAYRKLLEGEETRLSFTSVGSITSGYSQSSQVFGRSAYSGLQSSSYLMSARAFPAYYTSHVQEEQSEVEETIEATKAEEAKDEPPSEGEAEEEEKEKEEGEEEEGAEEEEAAKDESEDAKEEEGGEGEEEDTKESEEEEKKEESAGEEQAAKKKD

The target of the assay is T1, GST-tagged human wild-type AIP (aryl hydrocarbon receptor interacting protein) (human). Briefly: affinity purification with mass spectrometry; GST pull-down: 10 ug of purified GST-AIP bait (WT or variant) against 2 mg total protein of GH3 cell lysate; eluates of four experiments pooled; TMTsixplex labelling, Orbitrap MS; peptide intensities minus the GST control, variants given as fold of the WT experiment (WT = 1); only the target purified.
For “ATPA_RAT ATP synthase subunit alpha, mitochondrial (Atp5a1) (from UniProt P15999 44-553)”, the binding entry is “binds”.

As for “CO4_RAT Complement C4 (C4) (R. norvegicus (endogenous in GH3))”, the binding result is recorded as “binds”.

Turning to “HSP7C_RAT Heat shock cognate 71 kDa protein (Hspa8) (from UniProt P63018 1-646)”, the binding result is on record as “binds”.

For the molecule “LANC1_RAT LanC-like protein 1 (Lancl1) (from UniProt Q9QX69 1-399)”, the binding entry is listed as “binds”.

“SKP1_RAT S-phase kinase-associated protein 1 (Skp1) (from UniProt Q6PEC4 1-163)”: the binding result is “binds”.

As to “TBB4B_RAT Tubulin beta-4B chain (Tubb4b) (from UniProt Q6P9T8 1-445)”, the binding result is given as “binds”.

Consider B1, for which the binding entry is recorded as “binds”.

Regarding B2, the binding entry is on record as “binds”.

For B3, the binding result is recorded as “binds”.

Turning to B4, the binding result was “binds”.

Consider B5, for which the binding entry is reported as “no binding”.

For B6, the binding result was “binds”.

Regarding B7, the binding result is reported as “binds”.

With B8, the binding result was “binds”.

Consider B9, for which the binding entry is listed as “binds”.

B10: the binding result is recorded as “binds”.

In the case of B11, the binding entry was “binds”.
